Screening data

The results are deposited in PubChem (AID1224904; Broad Institute, 2016).

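Control-channel Italica luciferase signal in doxycycline-induced 293T-iDUX4 cells, given as percent activity after a 24-hour treatment. The test concentration is not given here. Percent change in the Italica control signal; more negative values mean stronger inhibition, which points to nonspecific, tet-on or cytotoxic effects.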

Values are in %. Common to all entries: measured here: Italica tet-on control reporter. Part of the compounds only, not a random draw; the main read-out is not listed here.

compound,activity change (%)
C[C@H](C(=O)N(C)C[C@H]1OCc2ccccc2-c2c(n(C)c3ccccc23)C(=O)N([C@@H](C)CO)C[C@H]1C)c1ccccc1,-22.51
C[C@H](CO)N1C[C@H](C)[C@@H](CN(C)Cc2ccc3c(c2)OCO3)OCc2ccccc2-c2c(n(C)c3ccccc23)C1=O,-0.1958
Cc1ccc(S(=O)(=O)N2C[C@H](O)COC[C@@H]3O[C@@H](CC(=O)NCc4ccc(Cl)c(Cl)c4)CC[C@H]32)cc1,-19.72
O=C(C[C@H]1CC[C@@H]2[C@H](COC[C@H](O)CN2Cc2cccc(-c3ccncc3)c2)O1)N1CCN(c2ccccc2)CC1,-54.97
N#C[C@@H]1[C@@H](c2ccccc2-c2ccc(F)cc2)[C@@H](CO)N1C(=O)Cc1ccccc1,-10.49
Cc1ccc(S(=O)(=O)N2C[C@@H](O)COC[C@@H]3O[C@@H](CC(=O)N[C@@H]4CCN(Cc5ccccc5)C4)CC[C@H]32)cc1,-10.03
O=C(C[C@@H]1C[C@H]2c3cc(NC(=O)c4ccc5c(c4)OCO5)ccc3O[C@H]2[C@H](CO)O1)NCc1ccc(Cl)cc1,-12.91
COc1ccc(NC(=O)Nc2ccc3c(c2)[C@@H]2C[C@@H](CC(=O)N[C@@H](C)c4ccccc4)O[C@@H](CO)[C@@H]2O3)cc1,-3.762
COc1ccccc1S(=O)(=O)N1C[C@@H]2N[C@H](C1)C2c1ccc(-c2cccc(C)c2)cc1 (stereo partly specified),-21.05
Cc1ccc(S(=O)(=O)N2C[C@H](O)COC[C@H]3O[C@H](CC(=O)NCC4CCCCC4)CC[C@@H]32)cc1,-15.82
N#Cc1cccc(-c2ccc3c(c2)[C@H]2[C@H](CCN2S(=O)(=O)c2ccccc2)[C@@H](CO)N3)c1,-3.349
O=C(C1CCC1)N1CC[C@H]2[C@H](CO)Nc3ccc(-c4cccc(F)c4)cc3[C@H]21,-5.817
COc1ccccc1S(=O)(=O)N1CC[C@@H]2[C@H]1c1cc(-c3ccc(F)cc3)ccc1N[C@@H]2CO,-35.63
O=C(Nc1cccc(F)c1)N1CCCCN2[C@H](C1)[C@H](c1ccc(C#Cc3cccnc3)cc1)[C@@H]2CO,-40.27
COc1ccccc1CNC(=O)C[C@@H]1C[C@H]2c3cc(NC(=O)Nc4ccc(C(F)(F)F)cc4)ccc3O[C@H]2[C@H](CO)O1,0.7069
Cc1ccc(-c2ccc([C@@H]3[C@H](CO)N4CCCCN(Cc5ccccn5)C[C@@H]34)cc2)cc1,-3.404
COc1ccccc1NC(=O)N1C[C@@H]2N[C@H](C1)C2c1ccc(/C=C/c2ccccc2)cc1 (stereo partly specified),-95.96
COc1ccc(C#Cc2ccc([C@H]3[C@@H](CO)N4CCCCN(S(=O)(=O)c5ccccc5)C[C@H]34)cc2)cc1,-8.635
Cc1cccc(S(=O)(=O)N2CC[C@@H]3[C@H](CO)N(C)c4ccc(-c5ccc(C#N)cc5)cc4[C@@H]32)c1,-56
C[C@H]1CN([C@@H](C)CO)C(=O)c2c(c3ccccc3n2C)-c2ccccc2CO[C@H]1CN(C)Cc1cccc(F)c1,-89.58
O=C(C[C@@H]1C[C@H]2c3cc(NC(=O)Nc4ccc(C(F)(F)F)cc4)ccc3O[C@H]2[C@H](CO)O1)NC1CCCCC1,-42.92
O=C(C[C@H]1CC[C@@H]2[C@H](COC[C@@H](O)CN2S(=O)(=O)c2ccc(Cl)cc2)O1)NCc1ccc(Cl)c(Cl)c1,-18.66
O=S(=O)(c1ccccc1F)N1[C@@H]2CNC[C@H]1C2c1ccc(/C=C/c2ccccc2)cc1 (stereo partly specified),-3.603
COc1cccc(C#Cc2ccc([C@@H]3[C@H]4CN(S(=O)(=O)c5ccccc5C)CC(=O)N4[C@H]3CO)cc2)c1,-31.54
O=C(Cc1ccccn1)NCC[C@@H]1CC[C@H](NC(=O)Nc2ccc(C(F)(F)F)cc2)[C@@H](CO)O1,-69.37
C[C@@H](NC(=O)C[C@@H]1C[C@H]2c3cc(NC(=O)Nc4ccccc4F)ccc3O[C@H]2[C@@H](CO)O1)c1ccccc1,1.074
COc1ccccc1C#Cc1ccc([C@H]2[C@@H](CO)N3CCCCN(C(=O)C4CCC4)C[C@H]23)cc1,-23.67
O=C(C[C@H]1CC[C@@H]2[C@H](COC[C@H](O)CN2S(=O)(=O)c2ccc(Cl)cc2)O1)NCc1ccc(Cl)c(Cl)c1,-63.04
O=C(c1ccc2c(c1)OCO2)N1CC(=O)N2[C@H](C1)[C@@H](c1ccc(C#CCC3CCCC3)cc1)[C@@H]2CO,-24.76
O=C(C1CCC1)N1CC2(C1)[C@H](c1ccccc1)[C@H](CO)N2Cc1ccc(Cl)cc1,-9.762
OC[C@@H]1[C@H](c2ccccc2)C2(CN(Cc3ccccc3F)C2)N1Cc1ccccc1F,-20.28
Cc1cccc(-c2ccc(C3[C@@H]4CN(C(=O)Nc5ccc(C(F)(F)F)cc5)C[C@H]3N4)cc2)c1 (stereo partly specified),-94.17
CCCC#Cc1ccc([C@@H]2[C@H](CO)N3C(=O)CN(S(=O)(=O)c4ccccc4C)C[C@@H]23)cc1,-33.3
O=C(C[C@H]1C[C@H]2c3cc(NS(=O)(=O)c4ccc(F)cc4)ccc3O[C@H]2[C@H](CO)O1)NCc1cccc(F)c1,-12.92
CCCC(=O)Nc1ccc2c(c1)C(=O)N(C)C[C@@H](OC)[C@H](C)CN(Cc1cc(-c3ccccc3)on1)[C@H](C)CO2,-1.339
COc1cccc(-c2ccc3c(c2)[C@H]2[C@H](CCN2S(=O)(=O)c2ccccc2F)[C@H](CO)N3)c1,-26.35
C[C@@H]1CN([C@@H](C)CO)C(=O)c2c(c3ccccc3n2C)-c2ccccc2CO[C@@H]1CN(C)S(=O)(=O)c1cccc(F)c1,-13.89
O=C(Nc1ccc(-c2ccccc2)cc1)[C@H]1[C@H](CO)[C@H]2Cn3c(cccc3=O)[C@H]2N1CC1CCCC1,-59.95
O=C(c1ccc(F)cc1)N1CC(=O)N2[C@@H](CO)[C@@H](c3ccc(C#CC4CCCCC4)cc3)[C@@H]2C1,-13.68
O=C(Nc1ccc(F)cc1)N1CCCCN2[C@@H](CO)[C@@H](c3ccc(-c4cccc(F)c4)cc3)[C@@H]2C1,-84.29
CCCNC(=O)N1CC2(CN(Cc3ccc(OC)cc3)C2)c2c(n(C)c3cc(OC)ccc23)[C@@H]1CO,-15.05
COc1ccccc1C#Cc1ccc2c(c1)[C@@H]1[C@@H](CCN1S(=O)(=O)c1ccc(F)cc1)[C@@H](CO)N2,-8.166
O=C1CNC[C@H]2[C@H](c3ccc(C#CC4CCCCC4)cc3)[C@H](CO)N12,-8.055
O=S(=O)(c1ccc(F)cc1)N1CC[C@@H]2[C@H](CO)Nc3ccc(-c4ccc(F)cc4)cc3[C@@H]21,-29.12
COc1ccc2c3c([nH]c2c1)[C@@H](CO)N(C(=O)Nc1cccc(F)c1)CC31CN(S(=O)(=O)c2ccccc2)C1,-96.6
COc1ccc(-c2ccc([C@@H]3[C@H](CO)N4C(=O)CN(C(=O)c5ccccc5)C[C@@H]34)cc2)cc1,-12.4
COc1ccc2c3c(n(C)c2c1)[C@H](CO)N(CC1CC1)CC31CN(C(=O)c2ccc3c(c2)OCO3)C1,-5.298
C/C=C/c1ccc([C@@H]2[C@@H](CO)N3CCCCN(S(=O)(=O)c4ccc(OC)cc4)C[C@@H]23)cc1,2.892
COc1ccc(C#Cc2ccc([C@@H]3[C@@H](CO)N4CCCCN(C(=O)Nc5ccccc5F)C[C@@H]34)cc2)cc1,-4.209
COc1ccccc1C#Cc1ccc2c(c1)[C@@H]1[C@@H](CCN1C(=O)Cc1ccccc1)[C@@H](CO)N2,-5.393
COc1ccc(-c2ccc3c(c2)[C@@H]2[C@@H](CCN2C(=O)C2CCOCC2)[C@@H](CO)N3C)cc1,-33.73
O=C(C[C@H]1C[C@@H]2c3cc(NC(=O)c4cccnc4)ccc3O[C@@H]2[C@@H](CO)O1)NCc1ccc(Oc2ccccc2)cc1,-31.33
C[C@@H]1CN([C@H](C)CO)C(=O)c2c(c3ccccc3n2C)-c2ccccc2CO[C@H]1CN(C)Cc1cccc(C(F)(F)F)c1,-0.6802
Cc1ccccc1-c1ccc([C@H]2[C@@H](CO)N3CCCCN(C(=O)Cc4ccccn4)C[C@H]23)cc1,-10.89
OC[C@@H]1Nc2ccc(C#Cc3cccnc3)cc2[C@@H]2NCC[C@H]12,-12.2
C[C@@H]1CN([C@@H](C)CO)C(=O)CCCn2nncc2CO[C@@H]1CN(C)S(=O)(=O)c1ccc(-c2ccccc2)cc1,-1.234